According to the supplement of paper PMC10849652:
The list shows a part of the results.

Sequences of proteins named here, by UniProt entry; tags and fusion partners are left off. A change or cut given only in a name is not applied to a line headed by its entry.
UniProt Q9UKK3: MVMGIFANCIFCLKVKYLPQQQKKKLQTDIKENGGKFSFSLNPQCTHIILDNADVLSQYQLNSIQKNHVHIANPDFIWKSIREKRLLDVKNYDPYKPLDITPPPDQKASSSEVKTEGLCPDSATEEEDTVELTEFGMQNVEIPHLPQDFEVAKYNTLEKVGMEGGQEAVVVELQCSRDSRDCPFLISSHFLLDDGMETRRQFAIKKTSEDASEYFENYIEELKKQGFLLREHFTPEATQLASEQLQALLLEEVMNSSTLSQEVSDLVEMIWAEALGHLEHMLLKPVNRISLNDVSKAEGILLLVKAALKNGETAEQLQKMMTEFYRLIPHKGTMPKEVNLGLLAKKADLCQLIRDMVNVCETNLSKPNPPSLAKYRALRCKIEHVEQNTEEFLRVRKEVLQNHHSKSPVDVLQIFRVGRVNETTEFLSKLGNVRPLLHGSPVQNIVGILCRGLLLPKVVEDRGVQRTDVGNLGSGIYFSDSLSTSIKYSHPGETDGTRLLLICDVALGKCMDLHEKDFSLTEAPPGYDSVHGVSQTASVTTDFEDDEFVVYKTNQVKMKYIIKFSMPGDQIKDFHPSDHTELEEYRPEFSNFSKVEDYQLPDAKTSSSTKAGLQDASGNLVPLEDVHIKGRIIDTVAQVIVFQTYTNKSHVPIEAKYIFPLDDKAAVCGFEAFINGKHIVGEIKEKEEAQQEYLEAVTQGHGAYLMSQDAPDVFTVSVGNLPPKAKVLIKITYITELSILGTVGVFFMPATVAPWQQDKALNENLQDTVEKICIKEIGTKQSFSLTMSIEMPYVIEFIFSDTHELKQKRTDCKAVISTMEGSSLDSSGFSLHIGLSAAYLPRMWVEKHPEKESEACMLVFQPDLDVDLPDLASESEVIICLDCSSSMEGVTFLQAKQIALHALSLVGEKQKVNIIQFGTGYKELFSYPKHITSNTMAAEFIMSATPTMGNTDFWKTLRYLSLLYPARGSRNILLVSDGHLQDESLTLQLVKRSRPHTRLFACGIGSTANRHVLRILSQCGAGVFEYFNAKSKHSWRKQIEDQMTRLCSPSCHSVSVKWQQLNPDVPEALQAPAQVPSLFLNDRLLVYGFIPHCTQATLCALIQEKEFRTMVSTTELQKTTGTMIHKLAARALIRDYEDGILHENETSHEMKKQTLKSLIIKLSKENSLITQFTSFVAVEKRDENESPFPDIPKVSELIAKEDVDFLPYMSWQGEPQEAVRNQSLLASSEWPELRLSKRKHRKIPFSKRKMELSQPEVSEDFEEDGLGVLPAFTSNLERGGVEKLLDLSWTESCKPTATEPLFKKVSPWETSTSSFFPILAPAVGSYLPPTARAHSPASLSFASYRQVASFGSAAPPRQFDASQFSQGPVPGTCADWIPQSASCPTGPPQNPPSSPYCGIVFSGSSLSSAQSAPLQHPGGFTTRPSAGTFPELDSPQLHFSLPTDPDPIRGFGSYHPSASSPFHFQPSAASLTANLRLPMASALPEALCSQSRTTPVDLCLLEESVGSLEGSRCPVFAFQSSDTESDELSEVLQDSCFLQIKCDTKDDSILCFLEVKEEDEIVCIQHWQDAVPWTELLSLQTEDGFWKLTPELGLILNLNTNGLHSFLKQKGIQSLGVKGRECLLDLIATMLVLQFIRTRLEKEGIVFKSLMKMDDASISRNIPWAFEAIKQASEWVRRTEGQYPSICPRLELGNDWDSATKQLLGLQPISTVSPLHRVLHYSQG
UniProt Q15154: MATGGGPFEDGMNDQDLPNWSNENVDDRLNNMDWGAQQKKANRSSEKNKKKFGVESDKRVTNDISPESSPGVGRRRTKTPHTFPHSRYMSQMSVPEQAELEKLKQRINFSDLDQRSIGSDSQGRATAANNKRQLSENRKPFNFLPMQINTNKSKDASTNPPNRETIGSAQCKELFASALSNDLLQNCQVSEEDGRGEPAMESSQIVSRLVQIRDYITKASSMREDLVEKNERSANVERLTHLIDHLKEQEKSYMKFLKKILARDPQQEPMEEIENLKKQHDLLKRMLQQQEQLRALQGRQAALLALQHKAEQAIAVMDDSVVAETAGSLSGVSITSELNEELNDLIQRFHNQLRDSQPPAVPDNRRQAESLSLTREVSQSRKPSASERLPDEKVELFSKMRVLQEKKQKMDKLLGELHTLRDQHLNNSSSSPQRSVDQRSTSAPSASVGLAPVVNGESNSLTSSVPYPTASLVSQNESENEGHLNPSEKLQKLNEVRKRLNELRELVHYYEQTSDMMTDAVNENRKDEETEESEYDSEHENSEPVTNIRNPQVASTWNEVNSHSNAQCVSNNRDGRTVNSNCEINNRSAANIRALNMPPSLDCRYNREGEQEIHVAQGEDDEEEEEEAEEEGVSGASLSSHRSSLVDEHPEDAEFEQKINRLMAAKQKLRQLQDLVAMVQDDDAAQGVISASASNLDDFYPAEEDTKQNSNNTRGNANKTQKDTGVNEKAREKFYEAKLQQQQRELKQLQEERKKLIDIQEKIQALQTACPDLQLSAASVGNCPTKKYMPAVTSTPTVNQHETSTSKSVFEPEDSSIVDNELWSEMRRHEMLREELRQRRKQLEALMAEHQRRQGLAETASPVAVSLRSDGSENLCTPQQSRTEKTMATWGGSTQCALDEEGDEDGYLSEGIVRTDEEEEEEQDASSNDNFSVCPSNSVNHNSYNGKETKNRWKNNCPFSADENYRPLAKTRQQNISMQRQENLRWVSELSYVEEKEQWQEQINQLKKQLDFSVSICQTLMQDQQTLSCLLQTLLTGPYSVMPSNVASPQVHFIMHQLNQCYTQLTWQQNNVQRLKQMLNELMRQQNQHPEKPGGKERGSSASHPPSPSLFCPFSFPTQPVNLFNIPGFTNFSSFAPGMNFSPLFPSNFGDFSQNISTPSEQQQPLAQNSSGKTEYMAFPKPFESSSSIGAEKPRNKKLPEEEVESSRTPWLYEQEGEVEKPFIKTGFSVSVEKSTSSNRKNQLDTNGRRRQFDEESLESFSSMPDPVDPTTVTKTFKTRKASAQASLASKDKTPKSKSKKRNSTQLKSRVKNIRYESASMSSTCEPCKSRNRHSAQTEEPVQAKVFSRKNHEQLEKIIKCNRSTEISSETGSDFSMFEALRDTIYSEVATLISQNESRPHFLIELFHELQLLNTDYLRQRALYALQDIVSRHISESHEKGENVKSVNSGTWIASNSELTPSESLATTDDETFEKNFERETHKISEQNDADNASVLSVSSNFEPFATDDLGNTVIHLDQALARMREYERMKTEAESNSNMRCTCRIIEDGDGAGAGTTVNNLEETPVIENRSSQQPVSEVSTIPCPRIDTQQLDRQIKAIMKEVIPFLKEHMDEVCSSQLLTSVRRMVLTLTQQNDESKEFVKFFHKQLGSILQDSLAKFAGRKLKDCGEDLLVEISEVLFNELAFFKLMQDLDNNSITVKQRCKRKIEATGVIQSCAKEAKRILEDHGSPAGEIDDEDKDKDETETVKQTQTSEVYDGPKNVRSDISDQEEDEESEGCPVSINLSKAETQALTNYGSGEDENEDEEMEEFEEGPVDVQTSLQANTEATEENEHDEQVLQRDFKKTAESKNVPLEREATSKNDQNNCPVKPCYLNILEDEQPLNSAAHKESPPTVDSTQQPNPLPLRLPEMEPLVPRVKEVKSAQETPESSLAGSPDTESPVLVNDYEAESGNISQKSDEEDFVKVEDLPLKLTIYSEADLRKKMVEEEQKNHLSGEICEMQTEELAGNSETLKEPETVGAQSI
UniProt Q58A45: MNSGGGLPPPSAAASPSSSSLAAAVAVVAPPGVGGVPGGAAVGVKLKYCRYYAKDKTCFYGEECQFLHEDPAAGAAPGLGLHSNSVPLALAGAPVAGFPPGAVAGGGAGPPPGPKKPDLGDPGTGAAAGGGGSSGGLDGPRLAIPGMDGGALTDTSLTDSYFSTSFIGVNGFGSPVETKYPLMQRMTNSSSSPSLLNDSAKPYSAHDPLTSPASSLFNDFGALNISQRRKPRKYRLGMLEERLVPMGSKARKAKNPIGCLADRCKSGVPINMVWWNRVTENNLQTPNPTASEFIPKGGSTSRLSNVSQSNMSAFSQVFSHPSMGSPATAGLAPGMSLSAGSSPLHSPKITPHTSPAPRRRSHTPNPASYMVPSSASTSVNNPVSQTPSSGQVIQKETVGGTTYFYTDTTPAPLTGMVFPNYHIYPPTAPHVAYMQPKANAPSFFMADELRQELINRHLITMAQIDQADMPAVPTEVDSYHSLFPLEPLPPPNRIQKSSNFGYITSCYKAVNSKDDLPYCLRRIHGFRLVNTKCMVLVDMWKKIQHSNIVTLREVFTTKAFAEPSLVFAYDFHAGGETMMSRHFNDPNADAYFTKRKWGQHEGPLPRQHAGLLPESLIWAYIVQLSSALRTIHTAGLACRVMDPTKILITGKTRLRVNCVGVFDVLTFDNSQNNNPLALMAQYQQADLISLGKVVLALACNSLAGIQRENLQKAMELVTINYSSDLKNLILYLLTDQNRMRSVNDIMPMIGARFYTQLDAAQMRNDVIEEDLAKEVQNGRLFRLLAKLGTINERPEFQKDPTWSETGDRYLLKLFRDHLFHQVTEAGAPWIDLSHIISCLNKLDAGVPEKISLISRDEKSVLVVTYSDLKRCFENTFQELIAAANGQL
UniProt Q08174: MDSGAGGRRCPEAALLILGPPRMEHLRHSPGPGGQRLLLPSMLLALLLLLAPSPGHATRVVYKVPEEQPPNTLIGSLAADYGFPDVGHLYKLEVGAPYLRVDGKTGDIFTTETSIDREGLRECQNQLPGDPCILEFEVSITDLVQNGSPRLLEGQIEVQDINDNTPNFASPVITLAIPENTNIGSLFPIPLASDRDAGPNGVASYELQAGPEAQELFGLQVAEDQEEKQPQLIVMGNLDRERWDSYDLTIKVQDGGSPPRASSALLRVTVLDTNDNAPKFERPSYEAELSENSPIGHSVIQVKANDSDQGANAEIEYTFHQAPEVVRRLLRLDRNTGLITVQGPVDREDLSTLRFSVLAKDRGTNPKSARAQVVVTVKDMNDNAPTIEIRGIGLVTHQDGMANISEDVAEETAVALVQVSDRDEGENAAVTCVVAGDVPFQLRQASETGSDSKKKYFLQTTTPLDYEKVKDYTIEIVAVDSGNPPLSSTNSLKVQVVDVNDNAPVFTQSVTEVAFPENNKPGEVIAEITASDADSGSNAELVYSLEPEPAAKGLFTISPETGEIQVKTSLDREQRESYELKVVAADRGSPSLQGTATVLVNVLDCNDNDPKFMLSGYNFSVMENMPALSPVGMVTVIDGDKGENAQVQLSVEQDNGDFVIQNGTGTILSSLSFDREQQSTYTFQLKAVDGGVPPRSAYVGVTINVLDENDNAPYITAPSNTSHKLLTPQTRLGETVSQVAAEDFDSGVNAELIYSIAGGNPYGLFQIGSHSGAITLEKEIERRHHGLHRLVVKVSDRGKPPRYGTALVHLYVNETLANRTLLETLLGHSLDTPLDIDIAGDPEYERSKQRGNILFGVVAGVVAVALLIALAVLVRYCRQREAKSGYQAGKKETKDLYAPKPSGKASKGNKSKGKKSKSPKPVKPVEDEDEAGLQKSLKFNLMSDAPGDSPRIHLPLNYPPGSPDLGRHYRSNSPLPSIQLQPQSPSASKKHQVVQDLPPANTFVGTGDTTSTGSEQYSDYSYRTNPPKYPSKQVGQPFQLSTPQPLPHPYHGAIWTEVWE
UniProt P30039: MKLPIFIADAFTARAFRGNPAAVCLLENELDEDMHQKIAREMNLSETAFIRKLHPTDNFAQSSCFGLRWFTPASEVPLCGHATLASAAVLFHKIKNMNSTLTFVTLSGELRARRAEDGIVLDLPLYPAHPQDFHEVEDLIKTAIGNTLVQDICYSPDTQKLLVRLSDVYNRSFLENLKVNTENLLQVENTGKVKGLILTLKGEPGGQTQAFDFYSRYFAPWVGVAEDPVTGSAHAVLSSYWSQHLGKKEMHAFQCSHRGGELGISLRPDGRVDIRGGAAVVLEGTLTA
UniProt O60683: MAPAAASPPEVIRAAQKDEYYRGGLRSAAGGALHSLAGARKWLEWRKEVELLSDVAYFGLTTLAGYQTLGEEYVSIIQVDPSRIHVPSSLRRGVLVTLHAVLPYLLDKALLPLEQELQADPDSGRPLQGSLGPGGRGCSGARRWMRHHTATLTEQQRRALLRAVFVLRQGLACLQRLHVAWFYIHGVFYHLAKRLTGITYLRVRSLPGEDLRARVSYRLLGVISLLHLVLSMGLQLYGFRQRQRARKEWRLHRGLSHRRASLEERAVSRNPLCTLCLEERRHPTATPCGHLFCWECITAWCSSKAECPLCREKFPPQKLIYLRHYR
UniProt Q86SE9: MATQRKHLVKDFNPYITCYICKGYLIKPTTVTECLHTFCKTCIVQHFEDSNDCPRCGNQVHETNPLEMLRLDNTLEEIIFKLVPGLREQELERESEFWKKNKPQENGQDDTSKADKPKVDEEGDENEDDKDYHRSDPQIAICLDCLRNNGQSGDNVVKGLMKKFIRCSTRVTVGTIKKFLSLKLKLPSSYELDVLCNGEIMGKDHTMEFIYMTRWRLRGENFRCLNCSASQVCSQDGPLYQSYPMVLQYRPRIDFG

Assays:
Assay in all cases: log2 fold change, soluble protein after heating vs DMSO (PISA); higher = thermal stabilisation; K562 cells, 10 uM, 30 min; active = over 0.2 and 3.5 SD of the protein, either way, in both replicates (recomputed)
[1] = compound: NC(=O)Nc1cc(-c2cccc(F)c2)sc1C(=O)N[C@H]1CCCNC1
In short: (§1)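 Values are thermal stability changes relative to control samples and are taken from duplicates. They are stated as log2 fold changes. Before quantification by TMTpro 16plex LC-MS/MS with equalised channel sums, K562 cells at 2×10^6 cells/mL were treated with 10 μM compound for 30 min, heated in aliquots for 3 min across 48°C-58°C, pooled, extracted in PBS with 0.5% NP-40 at 4°C, and centrifuged at 21,000xg for 90 min to give the soluble supernatant.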

[2] = compound: NC(=O)c1cnc(N[C@@H]2CCCC[C@@H]2N)nc1Nc1cccc(-n2nccn2)c1
In short: as §1

[3] = compound: NC1(c2ccc(-c3nc4ccn5c(=O)[nH]nc5c4cc3-c3ccccc3)cc2)CCC1
In short: as §1

[4] = compound: NCC(=O)Nc1ccc(-n2nc(C(F)(F)F)cc2-c2ccc3c(ccc4ccccc43)c2)cc1
In short: as §1

[5] = compound: Nc1ccccc1NC(=O)c1ccc(CNC(=O)OCc2cccnc2)cc1 [entinostat]
In short: as §1

[6] = compound: O=C(CCCCCCC(=O)Nc1ccccc1)NO [vorinostat]
In short: as §1

[7] = compound: O=C(CCCCCCNC(=O)c1cnc(N(c2ccccc2)c2ccccc2Cl)nc1)NO [citarinostat]
In short: as §1

[8] = compound: O=C(O)c1ccc2c(c1)nc(Nc1cccc(Cl)c1)c1ccncc12 [silmitasertib]
In short: as §1

[9] = compound: O=C1NC(=O)C(c2cnc3ccccn23)=C1c1cn2c3c(cc(F)cc13)CN(C(=O)N1CCCCC1)CC2
In short: as §1

[10] = compound: c1cc(OCCN2CCCCC2)cc(-c2n[nH]c3ccc(-c4nnc[nH]4)cc23)c1
In short: as §1

[11] = compound: c1cn2cc(-c3ccc4cn[nH]c4c3)nc(Nc3ccc(N4CCOCC4)cc3)c2n1 [entospletinib]
In short: as §1

PBXIP1 (UniProt Q96AQ6)
log2 fold change [1]: inactive: 0.023
log2 fold change [2]: inactive: -0.027
log2 fold change [3]: inactive: -0.029
log2 fold change [4]: inactive: -0.034
log2 fold change [5]: inactive: -0.03
log2 fold change [6]: inactive: -0.035
log2 fold change [7]: inactive: 0.042
log2 fold change [8]: inactive: 0.019
log2 fold change [9]: inactive: 0.014
log2 fold change [10]: inactive: -0.046
log2 fold change [11]: inactive: 0.001

PABPC4 isoform 3 (UniProt Q13310)
log2 fold change [1]: inactive: -0.018
log2 fold change [2]: inactive: -0.017
log2 fold change [3]: inactive: 0.122
log2 fold change [4]: inactive: -0.013
log2 fold change [5]: inactive: 0.027
log2 fold change [6]: inactive: 0.039
log2 fold change [7]: inactive: -0.009
log2 fold change [8]: inactive: 0.047
log2 fold change [9]: inactive: 0.089
log2 fold change [10]: inactive: -0.113
log2 fold change [11]: inactive: 0.067

PANK2 (UniProt Q9BZ23)
log2 fold change [1]: inactive: -0.051
log2 fold change [2]: inactive: -0.03
log2 fold change [3]: inactive: -0.047
log2 fold change [4]: inactive: -0.006
log2 fold change [5]: inactive: -0.07
log2 fold change [6]: inactive: -0.024
log2 fold change [7]: inactive: 0.145
log2 fold change [8]: inactive: 0.046
log2 fold change [9]: inactive: -0.003
log2 fold change [10]: inactive: -0.06
log2 fold change [11]: inactive: -0.05

PDIA3 (UniProt P30101)
log2 fold change [1]: inactive: 0.011
log2 fold change [2]: inactive: 0.004
log2 fold change [3]: inactive: -0.011
log2 fold change [4]: inactive: 0.059
log2 fold change [5]: inactive: 0.026
log2 fold change [6]: inactive: -0.04
log2 fold change [7]: inactive: -0.012
log2 fold change [8]: inactive: -0.006
log2 fold change [9]: inactive: 0.03
log2 fold change [10]: inactive: -0.068
log2 fold change [11]: inactive: 0.015

PCF11 (UniProt O94913)
log2 fold change [2]: inactive: -0.047
log2 fold change [3]: inactive: -0.333
log2 fold change [4]: inactive: -0.179
log2 fold change [6]: inactive: -0.04
log2 fold change [7]: inactive: 0.001
log2 fold change [8]: inactive: -0.113
log2 fold change [10]: inactive: 0.112
log2 fold change [11]: active: -0.745

PARP4 (UniProt Q9UKK3)
log2 fold change [1]: inactive: -0.229
log2 fold change [5]: inactive: -0.1

PCMTD1 (UniProt Q96MG8)
log2 fold change [9]: inactive: 0.125

PAFAH1B1 (UniProt I3L3N5)
log2 fold change [2]: inactive: -0.237
log2 fold change [3]: inactive: -0.056
log2 fold change [4]: inactive: -0.312
log2 fold change [8]: inactive: 0.027

PAICS (UniProt D6RF62)
log2 fold change [2]: inactive: -0.446
log2 fold change [6]: inactive: -0.494
log2 fold change [7]: inactive: -0.167
log2 fold change [10]: inactive: -0.099
log2 fold change [11]: inactive: 0.252

PCBP2 (UniProt F8VZX2)
log2 fold change [3]: inactive: 0.158
log2 fold change [8]: inactive: 0.193

PDIA4, A0A499FI48
log2 fold change [2]: inactive: -0.034
log2 fold change [3]: inactive: 0.047
log2 fold change [4]: inactive: -0.214
log2 fold change [6]: inactive: -0.031
log2 fold change [7]: inactive: -0.161
log2 fold change [8]: inactive: 0.012
log2 fold change [10]: inactive: -0.092
log2 fold change [11]: inactive: 0.078

PDE4DIP (UniProt E9PS60)
log2 fold change [4]: inactive: -0.172
log2 fold change [7]: inactive: 0.06
log2 fold change [10]: inactive: -0.051

PAF1 (UniProt Q8N7H5)
log2 fold change [3]: inactive: 0.232
log2 fold change [6]: inactive: -0.015
log2 fold change [8]: inactive: 0.038
log2 fold change [9]: inactive: -0.05

PCM1 isoform 2 (UniProt Q15154)
log2 fold change [1]: inactive: 0.068
log2 fold change [3]: inactive: -0.119
log2 fold change [5]: inactive: 0.067
log2 fold change [6]: inactive: 0.053
log2 fold change [8]: inactive: -0.071

PAXBP1 (UniProt Q9Y5B6)
log2 fold change [6]: inactive: 0.065
log2 fold change [7]: inactive: -0.106
log2 fold change [10]: inactive: -0.162
log2 fold change [11]: inactive: -0.064

PDSS2 (UniProt Q86YH6)
log2 fold change [1]: inactive: -0.108
log2 fold change [2]: inactive: -0.015
log2 fold change [4]: inactive: 0.011
log2 fold change [5]: inactive: -0.009
log2 fold change [6]: inactive: 0.041
log2 fold change [7]: inactive: 0.018
log2 fold change [9]: inactive: 0.026
log2 fold change [10]: inactive: -0.029

PALM (UniProt O75781)
log2 fold change [3]: inactive: 0.093
log2 fold change [4]: inactive: -0.105
log2 fold change [8]: inactive: 0.049

PAN3 (UniProt Q58A45)
log2 fold change [6]: inactive: -0.122

PABPN1 (UniProt Q86U42)
log2 fold change [3]: inactive: 0.25
log2 fold change [6]: inactive: -0.61
log2 fold change [8]: inactive: 0.156

PACRGL (UniProt Q8N7B6)
log2 fold change [1]: inactive: 0.055
log2 fold change [5]: inactive: -0.116

PACSIN3 (UniProt Q9UKS6)
log2 fold change [9]: inactive: 0.142

PDIK1L (UniProt Q8N165)
log2 fold change [1]: active: 0.566
log2 fold change [2]: inactive: -0.025
log2 fold change [3]: inactive: -0.075
log2 fold change [4]: inactive: -0.225
log2 fold change [5]: inactive: -0.094
log2 fold change [7]: inactive: 0.016
log2 fold change [8]: inactive: 0.035
log2 fold change [9]: inactive: 0.019
log2 fold change [10]: inactive: -0.162

PACS2 isoform 2 (UniProt Q86VP3)
log2 fold change [1]: inactive: -0.319
log2 fold change [5]: inactive: 0.056

PAFAH2 (UniProt Q99487)
log2 fold change [1]: inactive: 0.079
log2 fold change [2]: inactive: -0.194
log2 fold change [4]: inactive: 0.04
log2 fold change [5]: inactive: 0.075

PCDH1 isoform 2 (UniProt Q08174)
log2 fold change [1]: inactive: -0.129
log2 fold change [5]: inactive: -0.146

PDE3B (UniProt Q13370)
log2 fold change [3]: inactive: 0.183
log2 fold change [8]: inactive: 0.248
log2 fold change [9]: inactive: 0.305

PDE6C (UniProt P51160)
log2 fold change [1]: inactive: 0.005
log2 fold change [2]: inactive: -0.229
log2 fold change [3]: inactive: -0.083
log2 fold change [4]: inactive: 0.179
log2 fold change [5]: inactive: 0.034
log2 fold change [7]: inactive: 0.061
log2 fold change [8]: inactive: -0.182
log2 fold change [10]: inactive: -0.073
log2 fold change [11]: inactive: -0.112

PACC1 (UniProt Q9H813)
log2 fold change [1]: inactive: -0.068
log2 fold change [2]: inactive: 0.038
log2 fold change [3]: inactive: -0.058
log2 fold change [4]: inactive: -0.138
log2 fold change [5]: inactive: -0.094
log2 fold change [8]: inactive: 0.146
log2 fold change [9]: inactive: 0.043

PBLD (UniProt P30039)
log2 fold change [1]: inactive: 0.029
log2 fold change [2]: inactive: -0.059
log2 fold change [3]: inactive: -0.058
log2 fold change [4]: inactive: -0.07
log2 fold change [5]: inactive: -0.033
log2 fold change [7]: inactive: 0
log2 fold change [8]: inactive: -0.013
log2 fold change [9]: inactive: -0.067
log2 fold change [10]: inactive: 0.224
log2 fold change [11]: inactive: 0.004

PDE4A (UniProt P27815)
log2 fold change [2]: active: -0.67
log2 fold change [4]: inactive: 0.047
log2 fold change [9]: inactive: -0.017

PDZD11 isoform 2 (UniProt Q5EBL8)
log2 fold change [1]: inactive: -0.032
log2 fold change [3]: inactive: 0.003
log2 fold change [4]: inactive: 0.015
log2 fold change [5]: inactive: 0.053
log2 fold change [6]: inactive: 0.012
log2 fold change [7]: inactive: 0.046
log2 fold change [8]: inactive: 0.108
log2 fold change [9]: inactive: -0.055
log2 fold change [10]: inactive: -0.021
log2 fold change [11]: inactive: -0.024

PANK3 (UniProt Q9H999)
log2 fold change [1]: inactive: -0.199
log2 fold change [2]: inactive: -0.05
log2 fold change [5]: inactive: -0.061
log2 fold change [6]: inactive: -0.018
log2 fold change [7]: inactive: 0.132
log2 fold change [9]: inactive: -0.078
log2 fold change [10]: inactive: -0.198
log2 fold change [11]: inactive: -0.071

PEX10 isoform 2 (UniProt O60683)
log2 fold change [1]: inactive: -0.111
log2 fold change [2]: inactive: -0.032
log2 fold change [3]: inactive: -0.081
log2 fold change [5]: inactive: -0.022
log2 fold change [6]: inactive: -0.112
log2 fold change [8]: inactive: 0.078

PBX2 (UniProt P40425)
log2 fold change [1]: inactive: 0.089
log2 fold change [2]: inactive: -0.016
log2 fold change [3]: inactive: -0.203
log2 fold change [4]: inactive: -0.065
log2 fold change [5]: inactive: 0.058
log2 fold change [6]: inactive: 0.196
log2 fold change [8]: inactive: 0.003
log2 fold change [9]: inactive: -0.168

PDCD2 (UniProt Q16342)
log2 fold change [1]: inactive: -0.081
log2 fold change [3]: inactive: 0.145
log2 fold change [5]: inactive: 0.02
log2 fold change [7]: inactive: 0.081
log2 fold change [8]: inactive: 0.317
log2 fold change [9]: inactive: 0.115
log2 fold change [10]: inactive: -0.066
log2 fold change [11]: inactive: 0.069

PDP1 isoform 2 (UniProt Q9P0J1)
log2 fold change [1]: inactive: -0.151
log2 fold change [5]: inactive: -0.141

PCGF5 (UniProt Q86SE9)
log2 fold change [1]: inactive: -0.145
log2 fold change [5]: inactive: -0.003
log2 fold change [7]: inactive: 0.111
log2 fold change [9]: inactive: -0.002
log2 fold change [10]: inactive: -0.263
log2 fold change [11]: inactive: 0.024

PDXP (UniProt B1AHD3)
log2 fold change [4]: inactive: 0.006
log2 fold change [9]: inactive: -0.182

PCMTD2 (UniProt Q9NV79)
log2 fold change [3]: inactive: 0.015
log2 fold change [8]: inactive: -0.055

PARD3 (UniProt Q8TEW0)
log2 fold change [6]: inactive: 0.142
log2 fold change [7]: inactive: 0.068
log2 fold change [10]: inactive: -0.066
log2 fold change [11]: inactive: -0.173

PCIF1 (UniProt Q9H4Z3)
log2 fold change [1]: inactive: 0.119
log2 fold change [2]: inactive: 0.084
log2 fold change [3]: inactive: -0.021
log2 fold change [4]: inactive: -0.246
log2 fold change [5]: inactive: 0.003
log2 fold change [6]: inactive: 0.098
log2 fold change [8]: inactive: -0.085
log2 fold change [9]: inactive: -0.273

PCNX1 (UniProt Q96RV3)
log2 fold change [3]: inactive: 0.042
log2 fold change [4]: inactive: -0.043
log2 fold change [7]: inactive: -0.237
log2 fold change [8]: inactive: -0.11
log2 fold change [9]: inactive: -0.14
log2 fold change [10]: inactive: -0.269

PAN2 (UniProt Q504Q3)
log2 fold change [4]: inactive: -0.198
log2 fold change [7]: inactive: -0.127
log2 fold change [10]: inactive: 0.002

PCID2 (UniProt Q5JVF3)
log2 fold change [1]: inactive: -0.019
log2 fold change [3]: inactive: -0.103
log2 fold change [4]: inactive: 0.06
log2 fold change [5]: inactive: 0.12
log2 fold change [6]: inactive: 0.199
log2 fold change [7]: inactive: -0.004
log2 fold change [8]: inactive: 0.038
log2 fold change [9]: inactive: -0.15
log2 fold change [10]: inactive: 0.062
